Source: PubChem BioAssay AID1224828 (NIAID, 2016)
Screen: 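Find genes required for NF-kappaB p65 moving into the nucleus after LPS in mouse macrophages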 (primary screen). Cell system: mouse RAW264.7 G9 macrophage reporter cells (GFP-p65, Tnf promoter-mCherry). Reagent: siRNA pool against mouse genes, 100 nM. Timing: 2 days siRNA transfection, then 40 min LPS before fixation. Challenge: LPS (Salmonella minnesota R595) at 10 ng/ml. Measured: 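Imaged p65 nuclear translocation ratio, normalised to the plate median, converted to robust z-scores and averaged across two replicates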. Reading the numbers: p65 translocation robust z-score: higher = more nuclear NF-kappaB p65 after LPS than the plate median; nuclear/cytoplasmic p65 ratio: higher = more nuclear NF-kappaB p65. Hit rule: 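Called active when z exceeds 3.3 or falls under -1.56 (median of Tlr4 controls), giving activity score of at least 50; no calls for control wells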. Meaning of the calls: active = hit (p65 shift raised or lowered); inactive = no clear change.
The whole screen tested about 17,000 reagents; this is an unselected part. In the full data, 762 (4.5%) got an active call. 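Active calls include both raised and lowered p65 entry, mostly lowered; wells with fewer than 50 cells lack a z-score.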 Raw values are not corrected between plates.

no.	gene	p65 translocation robust z-score	nuclear/cytoplasmic p65 ratio, rep 1	nuclear/cytoplasmic p65 ratio, rep 2	low cell count flag	outcome
1	Cmtr1 (cap methyltransferase 1)		1.38	1.45	fewer than 50 cells per well; well left out of scoring	inactive
2	Avp (arginine vasopressin)	0.46	1.74	1.63	enough cells to score	inactive
3	Cenph (centromere protein H)	0.18	1.45	1.44	enough cells to score	inactive
4	Kif1a (kinesin family member 1A)	-1.34	1.28	1.22	enough cells to score	inactive
5	Or51aa5 (olfactory receptor family 51 subfamily AA member 5)	-0.06	1.38	1.31	enough cells to score	inactive
6	Scgb3a1 (secretoglobin, family 3A, member 1)		1.2	0.993	fewer than 50 cells per well; well left out of scoring	inactive
7	Gpr161 (G protein-coupled receptor 161)	-0.02	1.47	1.61	enough cells to score	inactive
8	Or4p19 (olfactory receptor family 4 subfamily P member 19)	-0.96	1.6	1.36	enough cells to score	inactive
9	Ddx25 (DEAD box helicase 25)	-0.59	1.36	1.58	enough cells to score	inactive
10	Mrpl27 (mitochondrial ribosomal protein L27)	0.32	1.9	1.58	enough cells to score	inactive
11	Chl1 (cell adhesion molecule L1-like)	0.49	1.59	1.95	enough cells to score	inactive
12	Uso1 (USO1 vesicle docking factor)	-0.71	1.35	1.1	enough cells to score	inactive
13	Pmel (premelanosome protein)	0.08	1.52	1.61	enough cells to score	inactive
14	C1ql1 (complement component 1, q subcomponent-like 1)	0.69	1.51	1.64	enough cells to score	inactive
15	Lypd11 (Ly6/PLAUR domain containing 11)	-0.03	1.64	1.6	enough cells to score	inactive
16	Aldob (aldolase B, fructose-bisphosphate)	-0.44	1.64	1.46	enough cells to score	inactive
17	Or12e10 (olfactory receptor family 12 subfamily E member 10)	0.43	1.83	1.55	enough cells to score	inactive
18	Or6a2 (olfactory receptor family 6 subfamily A member 2)	2.21	1.83	1.65	enough cells to score	inactive
19	Ccnt2 (cyclin T2)	0.53	1.24	1.44	enough cells to score	inactive
20	Mtrfr (mitochondrial translation release factor in rescue)	-0.84	1.45	1.35	enough cells to score	inactive
21	Ccl22 (C-C motif chemokine ligand 22)	0.41	1.74	1.43	enough cells to score	inactive
22	Rab31 (RAB31, member RAS oncogene family)	1.01	1.69	1.84	enough cells to score	inactive
23	Insc (INSC spindle orientation adaptor protein)		1.24	1.24	fewer than 50 cells per well; well left out of scoring	inactive
24	Bicd2 (BICD cargo adaptor 2)	-0.82	1.49	1.5	enough cells to score	inactive
25	A430033K04Rik (RIKEN cDNA A430033K04 gene)	1.03	1.53	1.65	enough cells to score	inactive
26	Negr1 (neuronal growth regulator 1)	-3.05	1.35	1.08	enough cells to score	active
27	Proz (protein Z, vitamin K-dependent plasma glycoprotein)	-0.66	1.43	1.31	enough cells to score	inactive
28	Cwf19l2 (CWF19 like cell cycle control factor 2)	1.93	1.83	2.13	enough cells to score	inactive
29	Tnfrsf19 (tumor necrosis factor receptor superfamily, member 19)	-0.49	1.5	1.4	enough cells to score	inactive
30	Cnot6l (CCR4-NOT transcription complex, subunit 6-like)	-0.61	1.5	1.55	enough cells to score	inactive
31	Hmox1 (heme oxygenase 1)	-1.33	1.24	1.22	enough cells to score	inactive
32	Naalad2 (N-acetylated alpha-linked acidic dipeptidase 2)	-0.24	1.75	1.55	enough cells to score	inactive
33	Ebag9 (estrogen receptor-binding fragment-associated gene 9)	-0.74	1.41	1.23	enough cells to score	inactive
34	Zfp219 (zinc finger protein 219)	-0.74	1.3	1.18	enough cells to score	inactive
35	Klra9 (killer cell lectin-like receptor subfamily A, member 9)	0.47	1.49	1.44	enough cells to score	inactive
36	Ago1 (argonaute RISC catalytic subunit 1)	-0.16	1.5	1.29	enough cells to score	inactive
37	Or8g33 (olfactory receptor family 8 subfamily G member 33)	1.8	1.6	1.45	enough cells to score	inactive
38	Galnt10 (polypeptide N-acetylgalactosaminyltransferase 10)	0.27	1.65	1.48	enough cells to score	inactive
39	Mdh2 (malate dehydrogenase 2, NAD (mitochondrial))	0.38	1.84	1.54	enough cells to score	inactive
40	Gimap1 (GTPase, IMAP family member 1)	1.15	1.78	1.53	enough cells to score	inactive
41	Slc7a6	-1.63	1.29	1.5	enough cells to score	active
42	Fmo4 (flavin containing monooxygenase 4)	-0.06	1.46	1.33	enough cells to score	inactive
43	Fgd6 (FYVE, RhoGEF and PH domain containing 6)	1.64	1.72	1.51	enough cells to score	inactive
44	Rex2 (reduced expression 2)	0.5	1.45	1.3	enough cells to score	inactive
45	Junb (jun B proto-oncogene, AP-1 transcription factor subunit)	1.54	1.5	1.57	enough cells to score	inactive
46	Pamr1	-0.24	1.43	1.18	enough cells to score	inactive
47	Or4c127 (olfactory receptor family 4 subfamily C member 127)		1.41	1.5	fewer than 50 cells per well; well left out of scoring	inactive
48	Kansl3 (KAT8 regulatory NSL complex subunit 3)	0.95	1.4	1.36	enough cells to score	inactive
49	Megf11 (multiple EGF-like-domains 11)	-0.61	1.37	1.33	enough cells to score	inactive
50	Adamts16 (ADAM metallopeptidase with thrombospondin type 1 motif 16)	-0.56	1.58	1.49	enough cells to score	inactive
51	Dkk4 (dickkopf WNT signaling pathway inhibitor 4)	1.78	1.76	1.54	enough cells to score	inactive
52	Rps5 (ribosomal protein S5)	0.34	1.46	1.66	enough cells to score	inactive
53	Hif1a (hypoxia inducible factor 1, alpha subunit)	0.87	1.59	1.45	enough cells to score	inactive
54	Cep104 (centrosomal protein 104)	-1.4	1.24	1.36	enough cells to score	inactive
55	C2cd4c (C2 calcium-dependent domain containing 4C)		0.861	0	fewer than 50 cells per well; well left out of scoring	inactive
56	Ttr (transthyretin)	-0.25	1.47	1.47	enough cells to score	inactive
57	Blmh (bleomycin hydrolase)	0.04	1.66	1.58	enough cells to score	inactive
58	Akap8 (A kinase anchor protein 8)	1.16	1.79	1.6	enough cells to score	inactive
59	BC061237 (cDNA sequence BC061237)		1.23	1.04	fewer than 50 cells per well; well left out of scoring	inactive
